The values below come from paper PMC7086158.

Protein sequences, listed by entry. Tags and fused reporters are not part of them.
UniProt Q9UQ35: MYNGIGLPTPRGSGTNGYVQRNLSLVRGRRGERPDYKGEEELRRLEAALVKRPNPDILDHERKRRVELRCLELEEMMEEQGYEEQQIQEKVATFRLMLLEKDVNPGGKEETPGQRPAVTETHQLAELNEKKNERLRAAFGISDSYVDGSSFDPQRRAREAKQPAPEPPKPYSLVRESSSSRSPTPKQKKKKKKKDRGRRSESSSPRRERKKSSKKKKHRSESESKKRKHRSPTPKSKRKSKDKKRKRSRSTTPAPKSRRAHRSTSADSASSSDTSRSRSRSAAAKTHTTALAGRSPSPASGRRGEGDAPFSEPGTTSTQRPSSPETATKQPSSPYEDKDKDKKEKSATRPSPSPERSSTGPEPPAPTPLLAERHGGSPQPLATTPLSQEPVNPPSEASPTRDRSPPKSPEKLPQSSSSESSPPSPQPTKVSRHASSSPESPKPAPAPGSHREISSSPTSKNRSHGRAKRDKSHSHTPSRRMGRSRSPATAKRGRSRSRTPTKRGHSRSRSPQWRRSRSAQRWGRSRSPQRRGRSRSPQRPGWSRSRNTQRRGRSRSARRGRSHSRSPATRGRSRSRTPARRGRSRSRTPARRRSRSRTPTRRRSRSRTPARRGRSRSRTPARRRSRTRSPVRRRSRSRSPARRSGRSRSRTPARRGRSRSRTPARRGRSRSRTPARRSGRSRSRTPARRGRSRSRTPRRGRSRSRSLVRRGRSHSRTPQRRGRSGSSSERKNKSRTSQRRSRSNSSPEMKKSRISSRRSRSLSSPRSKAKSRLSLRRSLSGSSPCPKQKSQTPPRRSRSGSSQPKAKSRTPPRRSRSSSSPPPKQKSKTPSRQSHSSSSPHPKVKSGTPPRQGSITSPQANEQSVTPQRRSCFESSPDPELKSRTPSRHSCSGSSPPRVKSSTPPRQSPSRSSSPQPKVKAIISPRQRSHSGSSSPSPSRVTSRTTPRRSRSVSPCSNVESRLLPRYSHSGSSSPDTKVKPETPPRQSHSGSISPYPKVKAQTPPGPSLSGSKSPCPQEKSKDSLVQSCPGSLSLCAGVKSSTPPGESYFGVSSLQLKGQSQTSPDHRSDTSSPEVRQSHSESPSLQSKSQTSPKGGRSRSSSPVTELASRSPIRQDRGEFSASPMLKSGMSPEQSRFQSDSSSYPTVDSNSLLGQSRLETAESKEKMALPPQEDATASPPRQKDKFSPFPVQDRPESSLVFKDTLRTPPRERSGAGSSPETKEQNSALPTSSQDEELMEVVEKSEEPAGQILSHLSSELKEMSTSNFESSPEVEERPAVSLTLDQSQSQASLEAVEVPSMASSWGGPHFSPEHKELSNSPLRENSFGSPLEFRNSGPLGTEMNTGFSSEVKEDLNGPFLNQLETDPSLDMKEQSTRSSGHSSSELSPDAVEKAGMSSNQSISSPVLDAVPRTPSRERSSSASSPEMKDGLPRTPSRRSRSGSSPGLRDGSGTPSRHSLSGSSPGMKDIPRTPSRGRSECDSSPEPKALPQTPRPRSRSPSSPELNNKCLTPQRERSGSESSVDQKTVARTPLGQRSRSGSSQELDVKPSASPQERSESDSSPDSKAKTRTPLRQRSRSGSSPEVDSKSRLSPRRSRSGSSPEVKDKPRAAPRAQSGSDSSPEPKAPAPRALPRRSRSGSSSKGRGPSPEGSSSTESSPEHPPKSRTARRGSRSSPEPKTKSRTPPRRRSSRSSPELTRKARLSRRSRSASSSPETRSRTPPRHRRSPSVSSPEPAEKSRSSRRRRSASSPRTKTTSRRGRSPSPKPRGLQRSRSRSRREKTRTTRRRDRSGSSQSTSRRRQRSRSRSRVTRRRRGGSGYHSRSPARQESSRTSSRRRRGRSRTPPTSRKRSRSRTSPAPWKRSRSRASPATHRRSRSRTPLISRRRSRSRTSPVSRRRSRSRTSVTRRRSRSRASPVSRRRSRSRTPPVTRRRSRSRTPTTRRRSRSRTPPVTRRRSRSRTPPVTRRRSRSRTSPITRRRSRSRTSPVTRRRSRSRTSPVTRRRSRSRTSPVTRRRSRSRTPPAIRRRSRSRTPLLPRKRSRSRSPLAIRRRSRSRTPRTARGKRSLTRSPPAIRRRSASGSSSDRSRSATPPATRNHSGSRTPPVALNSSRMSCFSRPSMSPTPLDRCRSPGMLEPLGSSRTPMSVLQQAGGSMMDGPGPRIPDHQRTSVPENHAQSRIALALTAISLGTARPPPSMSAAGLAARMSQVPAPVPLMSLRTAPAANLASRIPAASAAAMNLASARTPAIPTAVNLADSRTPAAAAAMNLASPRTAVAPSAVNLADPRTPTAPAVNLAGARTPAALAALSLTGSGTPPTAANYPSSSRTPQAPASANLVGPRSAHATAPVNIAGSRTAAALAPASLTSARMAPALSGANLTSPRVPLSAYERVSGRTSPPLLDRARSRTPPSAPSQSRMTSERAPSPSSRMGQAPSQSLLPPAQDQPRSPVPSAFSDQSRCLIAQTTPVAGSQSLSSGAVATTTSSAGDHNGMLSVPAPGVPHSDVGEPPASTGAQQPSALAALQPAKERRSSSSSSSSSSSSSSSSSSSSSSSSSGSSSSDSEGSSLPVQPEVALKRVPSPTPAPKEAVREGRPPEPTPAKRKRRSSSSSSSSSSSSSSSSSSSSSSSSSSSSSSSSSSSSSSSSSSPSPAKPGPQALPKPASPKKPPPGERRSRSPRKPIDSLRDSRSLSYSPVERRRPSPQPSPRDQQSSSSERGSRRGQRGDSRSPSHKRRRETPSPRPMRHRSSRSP
UniProt Q12972: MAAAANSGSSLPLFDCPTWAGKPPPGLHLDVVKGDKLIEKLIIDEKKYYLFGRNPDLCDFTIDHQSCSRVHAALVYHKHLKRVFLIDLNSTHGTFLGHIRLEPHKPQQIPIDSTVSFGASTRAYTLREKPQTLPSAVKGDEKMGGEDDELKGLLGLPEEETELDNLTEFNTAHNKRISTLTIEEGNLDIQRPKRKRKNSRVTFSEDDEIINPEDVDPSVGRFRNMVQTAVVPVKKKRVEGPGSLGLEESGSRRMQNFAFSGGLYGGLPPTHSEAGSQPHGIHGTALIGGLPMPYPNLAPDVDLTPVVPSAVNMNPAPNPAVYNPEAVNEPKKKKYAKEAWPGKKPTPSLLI

Read-outs that look alike come from different tables or passages of the source. Results are given in words; binding and its absence hold for the method and conditions named. Binding seen in cells or lysates may run through a third protein. A yes stands for co-enrichment or nearness to the bait. Other partners may have been found. A no says only that the protein was not detected with the bait. Sequences can lack the tags named with a protein.

Test in all cases: affinity purification with mass spectrometry; lysates of U2OS cells with N- or C-terminally FLAG-tagged murine Nuak1 on anti-FLAG M2 magnetic beads overnight, eluted with 3X FLAG peptide; enrichment over empty-vector cells
The target of experiment [1] is T1, N-terminally FLAG-tagged murine Nuak1 (mouse) (UniProt Q641K5).
T1 sequence: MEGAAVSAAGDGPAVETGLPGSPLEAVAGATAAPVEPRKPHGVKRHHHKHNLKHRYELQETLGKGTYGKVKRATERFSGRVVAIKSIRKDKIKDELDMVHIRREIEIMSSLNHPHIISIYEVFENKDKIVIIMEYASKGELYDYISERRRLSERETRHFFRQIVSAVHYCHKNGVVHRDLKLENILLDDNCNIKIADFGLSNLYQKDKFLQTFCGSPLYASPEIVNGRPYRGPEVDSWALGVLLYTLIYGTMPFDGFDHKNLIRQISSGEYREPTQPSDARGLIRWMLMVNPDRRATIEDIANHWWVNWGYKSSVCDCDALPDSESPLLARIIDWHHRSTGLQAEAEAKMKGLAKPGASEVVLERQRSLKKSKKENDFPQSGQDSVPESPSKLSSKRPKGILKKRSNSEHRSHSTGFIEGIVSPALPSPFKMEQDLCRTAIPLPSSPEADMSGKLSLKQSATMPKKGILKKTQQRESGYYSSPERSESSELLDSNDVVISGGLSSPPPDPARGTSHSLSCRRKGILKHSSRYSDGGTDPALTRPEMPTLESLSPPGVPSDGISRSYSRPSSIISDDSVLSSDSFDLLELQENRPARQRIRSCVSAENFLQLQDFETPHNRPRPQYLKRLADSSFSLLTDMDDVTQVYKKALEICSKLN

The target in experiment [2] is T2, C-terminally FLAG-tagged murine Nuak1 (mouse) (UniProt Q641K5).
T2 sequence: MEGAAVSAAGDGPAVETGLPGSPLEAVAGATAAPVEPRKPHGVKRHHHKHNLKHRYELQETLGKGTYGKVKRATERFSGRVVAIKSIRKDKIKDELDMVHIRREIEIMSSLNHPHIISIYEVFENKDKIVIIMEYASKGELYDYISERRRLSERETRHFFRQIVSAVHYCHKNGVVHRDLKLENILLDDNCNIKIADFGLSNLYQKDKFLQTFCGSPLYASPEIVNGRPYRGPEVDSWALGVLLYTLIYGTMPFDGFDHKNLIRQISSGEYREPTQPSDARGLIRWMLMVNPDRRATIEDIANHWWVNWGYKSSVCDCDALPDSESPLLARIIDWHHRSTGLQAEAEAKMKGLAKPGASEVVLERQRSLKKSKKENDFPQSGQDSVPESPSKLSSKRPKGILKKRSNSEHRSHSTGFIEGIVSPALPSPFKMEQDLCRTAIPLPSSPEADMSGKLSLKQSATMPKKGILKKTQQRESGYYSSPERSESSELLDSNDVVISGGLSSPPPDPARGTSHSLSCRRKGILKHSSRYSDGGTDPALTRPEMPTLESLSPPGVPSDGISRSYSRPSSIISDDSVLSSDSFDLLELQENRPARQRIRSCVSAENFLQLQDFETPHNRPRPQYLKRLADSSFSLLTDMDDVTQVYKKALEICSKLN

The target in experiment [3] is T1, N-terminally FLAG-tagged murine Nuak1 (mouse). This is another data set of the same source.
Experiment [4] deals with T2, C-terminally FLAG-tagged murine Nuak1 (mouse). This is another data set of the same source.

For the molecule SRRM2 (from UniProt Q9UQ35 1-2752), the binding result in experiment [1] and in experiment [2] was “binds” each time.
In the case of “NIPP1 (nuclear inhibitor of PP1) (from UniProt Q12972 1-351)”, the binding entry in experiment [1] and in experiment [2] was “no binding” throughout.

B1: Repo-Man (protein, UniProt Q69YH5 1-1023)
chain: MDANSKDKPPETKESAMNNAGNASFILGTGKIVTPQKHAELPPNPCTPDTFKSPLNFSTVTVEQLGITPESFVRNSAGKSSSYLKKCRRRSAVGARGSPETNHLIRFIARQQNIKNARKSPLAQDSPSQGSPALYRNVNTLRERISAFQSAFHSIKENEKMTGCLEFSEAGKESEMTDLTRKEGLSACQQSGFPAVLSSKRRRISYQRDSDENLTDAEGKVIGLQIFNIDTDRACAVETSVDLSEISSKLGSTQSGFLVEESLPLSELTETSNALKVADCVVGKGSSDAVSPDTFTAEVSSDAVPDVRSPATPACRRDLPTPKTFVLRSVLKKPSVKMCLESLQEHCNNLYDDDGTHPSLISNLPNCCKEKEAEDEENFEAPAFLNMRKRKRVTFGEDLSPEVFDESLPANTPLRKGGTPVCKKDFSGLSSLLLEQSPVPEPLPQPDFDDKGENLENIEPLQVSFAVLSSPNKSSISETLSGTDTFSSSNNHEKISSPKVGRITRTSNRRNQLVSVVEESVCNLLNTEVQPCKEKKINRRKSQETKCTKRALPKKSQVLKSCRKKKGKGKKSVQKSLYGERDIASKKPLLSPIPELPEVPEMTPSIPSIRRLGSGYFSSNGKLEEVKTPKNPVKRKDLLRHDPDLHMHQGYDKYDVSEFCSYIKSSSSLGNATSDEDPNTNIMNINENKNIPKAKNKSESENEPKAGTDSPVSCASVTEERVASDSPKPALTLQQGQEFSAGGQNAENLCQFFKISPDLNIKCERKDDFLGAAEGKLQCNRLMPNSQKDCHCLGDVLIENTKESKSQSEDLGRKPMESSSVVSCRDRKDRRRSMCYSDGRSLHLEKNGNHTPSSSVGSSVEISLENSELFKDLSDAIEQTFQRRNSETKVRRSTRLQKDLENEGLVWISLPLPSTSQKAKRRTICTFDSSGFESMSPIKETVSSRQKPQMAPPVSDPENSQGPAAGSSDEPGKRRKSFCISTLANTKATSQFKGYRRRSSLNGKGESSLTALERIEHNGERKQ
Turning to B1, the binding result in experiment [3] and in experiment [4] was “no binding” throughout.

B2: PNUTS (PP1-nuclear targeting subunit) (protein, UniProt Q96QC0 1-940)
chain: MGSGPIDPKELLKGLDSFLNRDGEVKSVDGISKIFSLMKEARKMVSRCTYLNILLQTRSPEILVKFIDVGGYKLLNNWLTYSKTTNNIPLLQQILLTLQHLPLTVDHLKQNNTAKLVKQLSKSSEDEELRKLASVLVSDWMAVIRSQSSTQPAEKDKKKRKDEGKSRTTLPERPLTEVKAETRAEEAPEKKREKPKSLRTTAPSHAKFRSTGLELETPSLVPVKKNASTVVVSDKYNLKPIPLKRQSNVAAPGDATPPAEKKYKPLNTTPNATKEIKVKIIPPQPMEGLGFLDALNSAPVPGIKIKKKKKVLSPTAAKPSPFEGKTSTEPSTAKPSSPEPAPPSEAMDADRPGTPVPPVEVPELMDTASLEPGALDAKPVESPGDPNQLTRKGRKRKSVTWPEEGKLREYFYFELDETERVNVNKIKDFGEAAKREILSDRHAFETARRLSHDNMEEKVPWVCPRPLVLPSPLVTPGSNSQERYIQAEREKGILQELFLNKESPHEPDPEPYEPIPPKLIPLDEECSMDETPYVETLEPGGSGGSPDGAGGSKLPPVLANLMGSMGAGKGPQGPGGGGINVQEILTSIMGSPNSHPSEELLKQPDYSDKIKQMLVPHGLLGPGPIANGFPPGGPGGPKGMQHFPPGPGGPMPGPHGGPGGPVGPRLLGPPPPPRGGDPFWDGPGDPMRGGPMRGGPGPGPGPYHRGRGGRGGNEPPPPPPPFRGARGGRSGGGPPNGRGGPGGGMVGGGGHRPHEGPGGGMGNSSGHRPHEGPGGGMGSGHRPHEGPGGSMGGGGGHRPHEGPGGGISGGSGHRPHEGPGGGMGAGGGHRPHEGPGGSMGGSGGHRPHEGPGHGGPHGHRPHDVPGHRGHDHRGPPPHEHRGHDGPGHGGGGHRGHDGGHSHGGDMSNRPVCRHFMMKGNCRYENNCAFYHPGVNGPPLP
Take B2: the binding result in experiment [3] and in experiment [4] was “binds” in each case.
